Results taken from publication PMC5812214.
These are yes or no findings as the source states them, for the method shown. In cells and extracts the contact can be indirect. Some results given as binding are weak or reduced against the parent protein; the word gives no strength.

Amino acid sequences for entries named in this document (tags omitted).
UniProt P14649: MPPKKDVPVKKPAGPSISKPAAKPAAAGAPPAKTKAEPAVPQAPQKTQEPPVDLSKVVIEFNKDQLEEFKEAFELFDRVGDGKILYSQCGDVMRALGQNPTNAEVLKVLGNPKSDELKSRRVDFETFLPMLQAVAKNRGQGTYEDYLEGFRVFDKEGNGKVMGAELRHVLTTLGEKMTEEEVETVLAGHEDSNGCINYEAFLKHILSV
UniProt Q00987: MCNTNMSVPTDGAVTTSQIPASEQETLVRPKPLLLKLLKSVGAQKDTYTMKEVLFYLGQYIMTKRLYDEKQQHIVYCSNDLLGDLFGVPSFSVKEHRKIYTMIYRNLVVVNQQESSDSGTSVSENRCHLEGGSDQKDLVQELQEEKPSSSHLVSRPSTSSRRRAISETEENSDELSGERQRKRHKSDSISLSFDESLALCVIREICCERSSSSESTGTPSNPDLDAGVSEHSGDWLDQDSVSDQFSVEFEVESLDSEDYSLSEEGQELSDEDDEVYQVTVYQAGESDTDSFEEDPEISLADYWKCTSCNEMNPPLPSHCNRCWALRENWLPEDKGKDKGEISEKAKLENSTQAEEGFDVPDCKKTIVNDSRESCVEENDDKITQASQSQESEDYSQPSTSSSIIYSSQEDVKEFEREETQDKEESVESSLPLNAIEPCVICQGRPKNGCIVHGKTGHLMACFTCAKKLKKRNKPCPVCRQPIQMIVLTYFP

Columns and labels:
3FLAG-MYL6B (human) = 3FLAG-MYL6B (human) (UniProt P14649); test: co-IP; lysate of Huh7 cells transfected with 3FLAG-vector or 3FLAG-MYL6B, anti-FLAG Agarose Affinity Gel, immunoblot with antibody against MYL6B, MDM2 or p53
[1] = target: myc3-MDM2 (pCMV-myc3-HDM2) (human) (UniProt Q00987); test: co-IP; lysate of Huh7 cells transfected with myc3-vector or myc3-MDM2, anti-myc agarose, immunoblot with antibody against MDM2 or MYL6B
[2] = target: MDM2, endogenous (human (endogenous in Huh7)) (UniProt Q00987); test: co-IP; endogenous proteins; Huh7 lysate with anti-MDM2, anti-p53 or normal rabbit IgG at 4 °C overnight, Protein A/G PLUS-Agarose 1 h, eluted with 0.1 M glycine-HCl pH 2.2, immunoblot with antibody against MYL6B

Substance | binding (3FLAG-MYL6B (human)) | binding [1] | binding [2]
MDM2, endogenous (from UniProt Q00987 1-491) (enzyme) | binds | – | –
Myosin Light Chain 6B (MYL6B), endogenous (from UniProt P14649 1-208) | – | binds | binds
